Measurements reported in PubChem BioAssay AID652243 (Drosophila RNAi Screening Center, 2013).
The deposit covers about 24,000 reagents; this is a random part of those with a known target gene and a result. Of all reagents, 246 (1%) were called active. 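Plates not normalised; calls are printed but the firefly/Renilla ratio behind them is not deposited; fold cut for lowering reported inconsistently.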 The raw values are shown without normalisation. Reagents against one gene are numbered here. Not stated in the record: the amount of reagent.

- Test: 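Knock-downs that decrease or increase androgen receptor reporter signal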 (primary screen)
- Cells: Drosophila S2R+ cells
- Knock-down reagent: long dsRNA against Drosophila genes
- Time to read-out: 72 h (48 h, then 24 h hormone)
- Challenge: synthetic androgen R1881 at 10 nM for 24 h
- Measurement: 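Per-well raw luminescence of the androgen-driven firefly reporter and of the Renilla control, two replicates each, without normalisation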
- Scale: firefly reporter light: higher = more light from androgen-responsive reporter; Renilla control light: higher = more constitutive control signal (cell number, transfection)
- Call rule: 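Across duplicate plates, a knock-down whose log firefly/Renilla ratio shifted a set fold down or up from the GFP/LacZ control mean was a hit; the downward cut appears as both 1.5 and 3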
- Meaning of the calls: active = hit: reporter lowered or raised; inactive = no hit

gene knocked down	reagent	firefly reporter light, replicate 1	firefly reporter light, replicate 2	Renilla control light, replicate 1	Renilla control light, replicate 2	call
RpS25 (Ribosomal protein S25)	1	1.63e5	1.95e5	2.79e6	3.06e6	inactive
RpS25 (Ribosomal protein S25)	2	8.25e5	5.79e5	1.11e6	1.17e6	inactive
PolE4 (DNA polymerase epsilon subunit 4)	1	2.09e5	2.27e5	1.76e6	1.72e6	inactive
CG14830	1	1.24e5	1.25e5	3.78e5	2.87e5	inactive
CG30060	1	1.61e5	1.57e5	4.29e5	4.47e5	inactive
CG42366	1	52173	54245	6.27e5	6.90e5	inactive
CG42366	2	7.49e5	8.04e5	1.22e6	1.69e6	inactive
CG42366	3					inactive
CG42366	4					inactive
veil	1	1.01e6	1.07e6	2.04e6	1.76e6	inactive
Mettl2 (Methyltransferase like 2)	1	1.55e6	6.06e5	2.00e6	1.16e6	inactive
Mettl2 (Methyltransferase like 2)	2	4.93e5	4.09e5	1.43e6	1.21e6	inactive
CG3528	1	60964	42275	5.51e5	4.04e5	inactive
CG3528	2	3.11e5	3.21e5	6.10e5	6.12e5	inactive
CG15719	1	6.16e5	5.80e5	2.62e6	3.11e6	inactive

Entries listed so far whose target name starts with M or m:
gene knocked down	reagent	firefly reporter light, replicate 1	firefly reporter light, replicate 2	Renilla control light, replicate 1	Renilla control light, replicate 2	call
Mettl2 (Methyltransferase like 2)	1	1.55e6	6.06e5	2.00e6	1.16e6	inactive
Mettl2 (Methyltransferase like 2)	2	4.93e5	4.09e5	1.43e6	1.21e6	inactive

The results go on.
gene knocked down	reagent	firefly reporter light, replicate 1	firefly reporter light, replicate 2	Renilla control light, replicate 1	Renilla control light, replicate 2	call
tacc (transforming acidic coiled-coil protein)	1	2.49e5	73858	4.57e5	1.64e5	inactive
tacc (transforming acidic coiled-coil protein)	2	8.38e5	8.77e5	1.57e6	1.86e6	inactive
tacc (transforming acidic coiled-coil protein)	3	3.83e5	3.82e5	1.71e6	1.28e6	inactive
CG17746	1	1.30e6	9.53e5	1.53e6	1.35e6	inactive
CG17746	2	4.86e5	6.35e5	9.02e5	1.20e6	inactive
Edg78E (Ecdysone-dependent gene 78E)	1	2.60e5	1.88e5	2.96e6	2.66e6	inactive
Edg78E (Ecdysone-dependent gene 78E)	2	2.24e5	2.91e5	7.84e5	8.22e5	inactive
mid (midline)	1	4.78e5	4.47e5	3.70e6	2.80e6	inactive
mid (midline)	2	9.60e5	6.06e5	4.16e6	2.49e6	inactive
mid (midline)	3	4.90e5	7.11e5	4.60e5	6.49e5	inactive
RabX2	1	5.31e5	3.02e5	2.67e6	2.38e6	inactive
CG5382	1	93837	86329	5.66e5	5.52e5	inactive
AANATL2 (Arylalkylamine N-acetyltransferase-like 2)	1	1.00e5	90396	1.18e6	1.16e6	inactive
AANATL2 (Arylalkylamine N-acetyltransferase-like 2)	2	1.66e5	1.41e5	2.53e5	2.33e5	inactive
CG14785	1	80701	89006	4.07e5	3.03e5	inactive
ftz (fushi tarazu)	1	64154	65548	1.15e6	1.15e6	inactive
ftz (fushi tarazu)	2	3.01e5	2.84e5	1.09e6	9.37e5	inactive
pkm (Pinkman)	1	97630	1.31e5	9.26e5	9.63e5	inactive
pkm (Pinkman)	2	6.78e5	4.37e5	1.14e6	6.39e5	inactive
Su(z)12	1	1.50e5	1.04e5	1.71e6	1.81e6	inactive
Su(z)12	2	3.35e5	3.56e5	6.37e5	5.54e5	inactive
CG32633	1	9.22e5	6.26e5	2.44e6	1.29e6	inactive
goe (gone early)	1	5.16e5	3.49e5	3.71e6	2.91e6	inactive
goe (gone early)	2	5.47e5	5.27e5	1.21e6	1.24e6	inactive
CG18746	1	1.31e5	1.38e5	2.53e6	2.06e6	inactive
